In paper PMC5393179:
Results are given in words; binding and its absence hold for the method and conditions named.

By UniProt entry, the sequences of proteins in these tests, tags left out.
UniProt P0A6X3: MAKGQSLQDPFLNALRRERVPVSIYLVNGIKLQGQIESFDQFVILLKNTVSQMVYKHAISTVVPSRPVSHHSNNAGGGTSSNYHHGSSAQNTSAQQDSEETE

Tests used:
[1] = biological target: Escherichia coli ProQ, full length (E. coli) (UniProt P45577); experiment: SEC-MALS; ProQ alone in solution; measured molecular mass 25,490 g/mol; both purified
[2] = biological target: Escherichia coli ProQ, full length (E. coli) (UniProt P45577); experiment: AUC; ProQ alone; sedimentation coefficient 1.72 S, frictional coefficient 1.67; both purified
[3] = biological target: Escherichia coli Hfq (E. coli) (UniProt P0A6X3); experiment: native gel or EMSA; ProQ and Hfq mixed, run on a native polyacrylamide gel and stained for protein; ProQ alone does not enter the gel; both purified
[4] = biological target: Escherichia coli Hfq (E. coli) (UniProt P0A6X3); experiment: SEC; ProQ and Hfq mixed (text: equimolar amounts; legend: 1:6 molar ratio) and run on a size exclusion column; eluted fractions analysed by SDS-PAGE; both purified

Measured: binding

B1: Escherichia coli ProQ, full length (protein, UniProt P45577 1-232)
chain: MENQPKLNSSKEVIAFLAERFPHCFSAEGEARPLKIGIFQDLVDRVAGEMNLSKTQLRSALRLYTSSWRYLYGVKPGATRVDLDGNPCGELDEQHVEHARKQLEEAKARVQAQRAEQQAKKREAAATAGEKEDAPRRERKPRPTTPRRKEGAERKPRAQKPVEKAPKTVKAPREEQHTPVSDISALTVGQALKVKAGQNAMDATVLEITKDGVRVQLNSGMSLIVRAEHLVF
no binding: all assays above
